Here are results for 55 targets from the supplement of paper PMC6411743.

The chains behind the UniProt entries cited, without tags or fusion partners. Where a name states a change or a piece, a line headed by the entry shows the natural chain unless it says otherwise.
UniProt O15305: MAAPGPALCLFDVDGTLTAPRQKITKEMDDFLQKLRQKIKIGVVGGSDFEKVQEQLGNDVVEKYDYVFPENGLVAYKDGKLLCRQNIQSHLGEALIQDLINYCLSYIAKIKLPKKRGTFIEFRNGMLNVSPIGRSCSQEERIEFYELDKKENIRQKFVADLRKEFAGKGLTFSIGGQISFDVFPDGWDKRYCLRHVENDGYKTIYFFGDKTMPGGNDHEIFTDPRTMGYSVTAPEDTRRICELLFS
UniProt P52272: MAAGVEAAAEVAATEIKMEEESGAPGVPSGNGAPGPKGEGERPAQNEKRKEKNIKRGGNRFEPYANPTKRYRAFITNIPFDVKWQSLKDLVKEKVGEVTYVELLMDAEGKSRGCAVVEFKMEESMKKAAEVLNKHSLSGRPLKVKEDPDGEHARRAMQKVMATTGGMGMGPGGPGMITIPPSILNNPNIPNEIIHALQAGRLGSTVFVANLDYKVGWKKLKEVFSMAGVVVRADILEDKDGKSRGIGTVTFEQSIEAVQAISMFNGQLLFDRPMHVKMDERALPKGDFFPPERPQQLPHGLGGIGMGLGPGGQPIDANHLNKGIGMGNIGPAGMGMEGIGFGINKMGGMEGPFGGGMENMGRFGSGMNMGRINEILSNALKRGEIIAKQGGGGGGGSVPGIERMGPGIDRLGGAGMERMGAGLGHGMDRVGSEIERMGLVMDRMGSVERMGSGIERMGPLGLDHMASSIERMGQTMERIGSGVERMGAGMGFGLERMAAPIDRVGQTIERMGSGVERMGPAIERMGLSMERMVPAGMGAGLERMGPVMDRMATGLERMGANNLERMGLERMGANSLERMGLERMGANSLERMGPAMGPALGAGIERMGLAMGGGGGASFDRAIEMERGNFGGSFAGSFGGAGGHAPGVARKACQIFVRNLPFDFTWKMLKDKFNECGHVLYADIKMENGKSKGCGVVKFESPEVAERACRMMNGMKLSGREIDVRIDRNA
UniProt P53680: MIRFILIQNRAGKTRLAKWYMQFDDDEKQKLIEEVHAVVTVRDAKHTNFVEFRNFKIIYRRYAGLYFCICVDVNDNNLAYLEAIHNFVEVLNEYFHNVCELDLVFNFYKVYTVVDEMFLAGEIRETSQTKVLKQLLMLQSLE
UniProt O43324: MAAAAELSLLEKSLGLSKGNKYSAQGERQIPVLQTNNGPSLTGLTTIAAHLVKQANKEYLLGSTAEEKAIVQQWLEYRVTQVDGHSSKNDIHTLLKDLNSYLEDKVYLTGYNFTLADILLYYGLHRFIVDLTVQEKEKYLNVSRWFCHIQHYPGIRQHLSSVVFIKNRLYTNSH
UniProt O43639, whole entry: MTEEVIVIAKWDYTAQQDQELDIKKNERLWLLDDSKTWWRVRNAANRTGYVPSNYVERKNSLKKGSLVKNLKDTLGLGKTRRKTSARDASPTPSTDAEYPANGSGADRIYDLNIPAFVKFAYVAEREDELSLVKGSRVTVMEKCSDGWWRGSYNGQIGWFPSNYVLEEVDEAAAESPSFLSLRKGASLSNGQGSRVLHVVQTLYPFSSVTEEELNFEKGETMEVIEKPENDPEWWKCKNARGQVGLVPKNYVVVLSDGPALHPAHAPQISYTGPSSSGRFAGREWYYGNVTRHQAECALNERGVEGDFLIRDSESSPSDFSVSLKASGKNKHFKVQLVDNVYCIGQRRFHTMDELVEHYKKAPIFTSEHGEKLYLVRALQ
UniProt O00442: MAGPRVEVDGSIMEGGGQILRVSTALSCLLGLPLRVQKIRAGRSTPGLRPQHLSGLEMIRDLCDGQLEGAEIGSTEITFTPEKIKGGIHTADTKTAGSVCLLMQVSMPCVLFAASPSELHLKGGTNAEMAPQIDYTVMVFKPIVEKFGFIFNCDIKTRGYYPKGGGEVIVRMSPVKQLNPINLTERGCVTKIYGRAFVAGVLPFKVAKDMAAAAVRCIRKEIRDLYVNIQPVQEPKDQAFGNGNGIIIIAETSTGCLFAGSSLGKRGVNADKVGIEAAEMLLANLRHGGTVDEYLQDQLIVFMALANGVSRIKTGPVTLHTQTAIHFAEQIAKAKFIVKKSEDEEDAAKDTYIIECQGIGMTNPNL
UniProt O15498: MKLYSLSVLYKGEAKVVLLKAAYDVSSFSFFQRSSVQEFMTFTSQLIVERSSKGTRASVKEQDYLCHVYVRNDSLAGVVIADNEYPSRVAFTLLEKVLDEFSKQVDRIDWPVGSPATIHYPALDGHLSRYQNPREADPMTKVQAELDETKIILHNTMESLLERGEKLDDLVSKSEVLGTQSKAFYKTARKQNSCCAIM
UniProt Q96C34: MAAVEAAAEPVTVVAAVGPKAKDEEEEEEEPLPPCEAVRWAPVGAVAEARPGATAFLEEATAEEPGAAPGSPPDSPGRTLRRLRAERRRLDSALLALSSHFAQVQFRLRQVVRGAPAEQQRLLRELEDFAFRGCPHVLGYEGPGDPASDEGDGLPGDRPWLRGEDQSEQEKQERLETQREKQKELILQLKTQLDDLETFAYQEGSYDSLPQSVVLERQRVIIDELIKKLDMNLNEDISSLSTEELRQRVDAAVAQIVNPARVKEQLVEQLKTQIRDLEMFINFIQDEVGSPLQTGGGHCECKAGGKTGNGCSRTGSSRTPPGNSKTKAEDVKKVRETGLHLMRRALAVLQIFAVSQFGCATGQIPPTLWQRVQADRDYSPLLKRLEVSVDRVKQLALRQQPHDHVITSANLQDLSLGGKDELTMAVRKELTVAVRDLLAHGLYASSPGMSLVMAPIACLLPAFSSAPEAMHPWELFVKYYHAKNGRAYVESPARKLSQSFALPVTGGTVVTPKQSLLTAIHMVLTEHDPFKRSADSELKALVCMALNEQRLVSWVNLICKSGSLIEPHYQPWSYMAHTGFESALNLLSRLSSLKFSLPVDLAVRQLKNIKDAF
UniProt O00186: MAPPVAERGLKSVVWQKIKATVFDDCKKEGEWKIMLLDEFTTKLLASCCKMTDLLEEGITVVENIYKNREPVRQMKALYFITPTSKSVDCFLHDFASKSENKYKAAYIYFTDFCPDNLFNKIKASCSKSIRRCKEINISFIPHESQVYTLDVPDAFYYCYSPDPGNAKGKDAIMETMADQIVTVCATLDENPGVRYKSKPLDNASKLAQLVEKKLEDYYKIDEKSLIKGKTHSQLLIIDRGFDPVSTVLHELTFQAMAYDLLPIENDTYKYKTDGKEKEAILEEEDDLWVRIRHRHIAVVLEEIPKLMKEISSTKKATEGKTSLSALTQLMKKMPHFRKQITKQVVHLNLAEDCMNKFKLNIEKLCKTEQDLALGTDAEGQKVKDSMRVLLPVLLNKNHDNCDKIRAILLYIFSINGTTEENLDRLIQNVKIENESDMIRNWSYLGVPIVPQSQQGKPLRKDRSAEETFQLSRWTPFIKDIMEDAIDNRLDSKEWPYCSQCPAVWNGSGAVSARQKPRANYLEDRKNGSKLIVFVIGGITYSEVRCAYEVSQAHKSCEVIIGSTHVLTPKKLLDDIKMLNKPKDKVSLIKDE
UniProt P28340: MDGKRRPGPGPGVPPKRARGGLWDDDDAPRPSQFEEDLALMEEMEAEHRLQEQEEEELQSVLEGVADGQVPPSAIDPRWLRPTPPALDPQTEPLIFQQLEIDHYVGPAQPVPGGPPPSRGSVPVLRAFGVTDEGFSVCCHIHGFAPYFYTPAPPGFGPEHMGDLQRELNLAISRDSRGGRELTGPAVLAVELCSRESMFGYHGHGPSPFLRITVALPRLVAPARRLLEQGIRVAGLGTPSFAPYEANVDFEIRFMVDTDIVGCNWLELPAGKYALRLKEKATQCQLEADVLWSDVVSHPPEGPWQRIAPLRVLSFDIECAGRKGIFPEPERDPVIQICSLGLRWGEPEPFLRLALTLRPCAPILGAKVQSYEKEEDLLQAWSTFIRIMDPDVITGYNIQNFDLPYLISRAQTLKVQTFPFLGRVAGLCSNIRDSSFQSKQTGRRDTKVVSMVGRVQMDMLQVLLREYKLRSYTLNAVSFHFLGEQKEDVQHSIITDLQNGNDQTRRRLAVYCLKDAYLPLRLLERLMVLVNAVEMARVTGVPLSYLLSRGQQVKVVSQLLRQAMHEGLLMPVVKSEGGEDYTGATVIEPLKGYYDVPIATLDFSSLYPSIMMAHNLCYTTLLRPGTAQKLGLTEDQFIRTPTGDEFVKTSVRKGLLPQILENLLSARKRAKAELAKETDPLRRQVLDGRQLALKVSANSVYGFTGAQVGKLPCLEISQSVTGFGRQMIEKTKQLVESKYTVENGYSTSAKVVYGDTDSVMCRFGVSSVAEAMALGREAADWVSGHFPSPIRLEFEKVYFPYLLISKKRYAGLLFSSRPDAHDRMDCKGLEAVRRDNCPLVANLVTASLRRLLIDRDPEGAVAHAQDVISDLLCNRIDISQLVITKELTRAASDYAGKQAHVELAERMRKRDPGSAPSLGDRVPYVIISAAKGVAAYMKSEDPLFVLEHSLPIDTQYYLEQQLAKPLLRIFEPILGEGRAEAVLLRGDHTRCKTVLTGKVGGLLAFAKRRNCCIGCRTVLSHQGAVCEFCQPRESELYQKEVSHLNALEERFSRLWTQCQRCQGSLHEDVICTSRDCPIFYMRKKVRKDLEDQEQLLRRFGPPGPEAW
UniProt O43164: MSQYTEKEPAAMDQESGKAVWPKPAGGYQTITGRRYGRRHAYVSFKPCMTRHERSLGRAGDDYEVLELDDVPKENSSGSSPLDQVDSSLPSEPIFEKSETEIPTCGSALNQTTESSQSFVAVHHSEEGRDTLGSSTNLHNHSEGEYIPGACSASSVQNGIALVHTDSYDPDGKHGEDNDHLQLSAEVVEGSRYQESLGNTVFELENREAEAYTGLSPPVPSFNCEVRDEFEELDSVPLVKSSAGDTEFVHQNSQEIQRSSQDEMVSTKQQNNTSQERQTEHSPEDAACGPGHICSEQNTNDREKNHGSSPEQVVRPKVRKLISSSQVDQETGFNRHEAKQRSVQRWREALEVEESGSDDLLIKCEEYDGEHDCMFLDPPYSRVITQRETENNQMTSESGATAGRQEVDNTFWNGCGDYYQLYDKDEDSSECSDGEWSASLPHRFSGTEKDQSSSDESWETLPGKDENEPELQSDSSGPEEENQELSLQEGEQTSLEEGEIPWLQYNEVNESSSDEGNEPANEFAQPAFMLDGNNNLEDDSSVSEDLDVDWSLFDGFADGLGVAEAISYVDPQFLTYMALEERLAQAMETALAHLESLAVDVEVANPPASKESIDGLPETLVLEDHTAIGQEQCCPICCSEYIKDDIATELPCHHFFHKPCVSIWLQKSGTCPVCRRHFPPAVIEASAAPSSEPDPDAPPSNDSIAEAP
UniProt O43678, whole entry: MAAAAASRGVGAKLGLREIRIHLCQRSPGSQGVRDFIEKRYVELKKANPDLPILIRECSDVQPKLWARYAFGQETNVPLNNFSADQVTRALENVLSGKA
UniProt O14933: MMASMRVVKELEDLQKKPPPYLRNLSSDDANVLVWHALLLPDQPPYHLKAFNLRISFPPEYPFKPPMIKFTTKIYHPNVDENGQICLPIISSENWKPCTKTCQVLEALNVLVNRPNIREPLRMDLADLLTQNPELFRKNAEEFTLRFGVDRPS
UniProt O15212, whole entry: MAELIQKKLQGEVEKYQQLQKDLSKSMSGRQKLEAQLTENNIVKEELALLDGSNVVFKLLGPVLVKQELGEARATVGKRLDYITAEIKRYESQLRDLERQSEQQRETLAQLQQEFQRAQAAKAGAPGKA
UniProt O00221: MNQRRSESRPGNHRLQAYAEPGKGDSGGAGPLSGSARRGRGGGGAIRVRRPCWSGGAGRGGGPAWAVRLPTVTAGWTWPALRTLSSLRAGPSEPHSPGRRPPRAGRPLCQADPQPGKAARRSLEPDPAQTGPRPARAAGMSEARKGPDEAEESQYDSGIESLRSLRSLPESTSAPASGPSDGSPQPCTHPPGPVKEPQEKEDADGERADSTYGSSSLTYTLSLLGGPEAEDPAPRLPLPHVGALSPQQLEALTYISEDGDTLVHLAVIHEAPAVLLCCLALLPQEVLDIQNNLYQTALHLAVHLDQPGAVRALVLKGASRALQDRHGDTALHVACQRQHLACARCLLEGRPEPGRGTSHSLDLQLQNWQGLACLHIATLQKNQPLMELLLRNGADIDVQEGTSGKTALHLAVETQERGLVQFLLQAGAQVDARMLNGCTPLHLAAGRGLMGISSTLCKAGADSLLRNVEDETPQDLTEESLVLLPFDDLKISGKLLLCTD
UniProt O00273: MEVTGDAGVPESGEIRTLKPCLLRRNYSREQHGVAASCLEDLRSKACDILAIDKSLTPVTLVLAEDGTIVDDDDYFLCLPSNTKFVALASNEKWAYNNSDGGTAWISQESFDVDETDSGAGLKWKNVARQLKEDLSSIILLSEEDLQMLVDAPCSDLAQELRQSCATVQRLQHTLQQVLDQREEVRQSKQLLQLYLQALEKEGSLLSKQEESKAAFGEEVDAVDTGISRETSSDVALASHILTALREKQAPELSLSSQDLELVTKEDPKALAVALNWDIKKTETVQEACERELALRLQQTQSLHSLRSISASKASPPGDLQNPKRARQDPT
UniProt O75264: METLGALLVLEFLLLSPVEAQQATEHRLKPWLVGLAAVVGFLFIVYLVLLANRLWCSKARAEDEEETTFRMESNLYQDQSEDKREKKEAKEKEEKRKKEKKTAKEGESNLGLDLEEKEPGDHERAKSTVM

± gives the standard deviation of the averaged measurements. Only a part is listed here, and it is no random draw. Most values lie at the level of the controls, where differences are scatter.

Compound in the assay: Nc1ncnc2c1ncn2[C@@H]1O[C@H](COP(=O)(O)OP(=O)(O)NP(=O)(O)O)[C@@H](O)[C@H]1O [adenylyl imidodiphosphate]
Put plainly: NP40-soluble protein abundance relative to vehicle (solubility fold change) (ratio); higher = more soluble protein in presence of AMP-PNP. The method in brief: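 Each value is a fold change relative to the detergent-processed vehicle, calculated per replicate from vsn-normalised intensities. Jurkat crude lysate received eight concentrations (0.1 to 10 mM) for 10 min at room temperature and 3 min at 37 °C, then was solubilised in 0.8% NP40 with benzonase (60 min, 4 °C). The ultracentrifuged supernatant was TMT-labelled and run by LC-MS/MS in three independent experiments.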

For the target ZW10 (UniProt O43264), the NP40-soluble protein abundance was determined as 1.01 ± 0.021 (concentration: 0.1mM) and 0.977 ± 0.043 (concentration: 0.5mM).

“M0QX46 and related entries (UniProt Q6UUV9)”: the NP40-soluble protein abundance (concentration: 0.1mM) is 0.9758 ± 0.0022 and the NP40-soluble protein abundance (concentration: 0.5mM) worked out at 0.987 ± 0.019.

In the case of UniProt O15037, the NP40-soluble protein abundance runs as follows: (concentration: 0.1mM) 0.995 ± 0.045; (concentration: 0.5mM) 0.975 ± 0.011.

As to ZBTB24 (UniProt O43167), the NP40-soluble protein abundance is, setting by setting: (concentration: 0.1mM) 0.995 ± 0.017; (concentration: 0.5mM) 1.015 ± 0.0043.

For the target UniProt O14975 and related entries, the NP40-soluble protein abundance amounted to 1 ± 0.049 (concentration: 0.1mM) and 0.998 ± 0.075 (concentration: 0.5mM).

For the target NPC1 (UniProt O15118), the NP40-soluble protein abundance reads like this: (concentration: 0.1mM) 1.01 ± 0.026; (concentration: 0.5mM) 0.989 ± 0.012.

UniProt O15091: the NP40-soluble protein abundance reads like this: (concentration: 0.1mM) 0.984 ± 0.014; (concentration: 0.5mM) 0.964 ± 0.039.

On to “K7ERF1 and related entries (UniProt Q9UBQ5)”, for which the NP40-soluble protein abundance (concentration: 0.1mM) turned out to be 0.999 ± 0.022 and the NP40-soluble protein abundance (concentration: 0.5mM) came to 1.013 ± 0.0081.

In the case of PMM2 (UniProt O15305), the NP40-soluble protein abundance (concentration: 0.1mM) was found to be 0.9987 ± 0.00091 and the NP40-soluble protein abundance (concentration: 0.5mM) stood at 1.01 ± 0.017.

As for “M0QZM1 and related entries (UniProt P52272)”, the NP40-soluble protein abundance reads like this: (concentration: 0.1mM) 1.01 ± 0.037; (concentration: 0.5mM) 1 ± 0.039.

With DENR (UniProt O43583), the NP40-soluble protein abundance is, setting by setting: (concentration: 0.1mM) 0.988 ± 0.035; (concentration: 0.5mM) 1.01 ± 0.027.

Consider UniProt O43813 and related entries, for which the NP40-soluble protein abundance by setting is: (concentration: 0.1mM) 1.01 ± 0.023; (concentration: 0.5mM) 0.984 ± 0.041.

In the case of “M0QYZ2 and related entries (UniProt P53680)”, the NP40-soluble protein abundance by setting is: (concentration: 0.1mM) 1.04 ± 0.052; (concentration: 0.5mM) 0.953 ± 0.12.

For EEF1E1 (UniProt O43324), the NP40-soluble protein abundance reads like this: (concentration: 0.1mM) 1.03 ± 0.011; (concentration: 0.5mM) 1.01 ± 0.025.

As to “K7EK07 and related entries (UniProt P84243+K7EK07)”, the NP40-soluble protein abundance (concentration: 0.1mM) worked out at 1 ± 0.053 and the NP40-soluble protein abundance (concentration: 0.5mM) is 1.01 ± 0.031.

Take “K7EPA3 and related entries (UniProt Q9NX61)”: the NP40-soluble protein abundance is, setting by setting: (concentration: 0.1mM) 0.997 ± 0.018; (concentration: 0.5mM) 1.03 ± 0.019.

As to TOR1A (UniProt O14656), the NP40-soluble protein abundance runs as follows: (concentration: 0.1mM) 1.04 ± 0.023; (concentration: 0.5mM) 1.05 ± 0.045.

NCK2 (UniProt O43639): the NP40-soluble protein abundance reads like this: (concentration: 0.1mM) 1.02 ± 0.03; (concentration: 0.5mM) 0.977 ± 0.0078.

For the target UniProt O15446 and related entries, the NP40-soluble protein abundance worked out at 1.02 ± 0.058 (concentration: 0.1mM) and 1.007 ± 0.0055 (concentration: 0.5mM).

On to UniProt O15066 and related entries, for which the NP40-soluble protein abundance is, setting by setting: (concentration: 0.1mM) 1.02 ± 0.022; (concentration: 0.5mM) 1.03 ± 0.017.

Consider UniProt O00442, for which the NP40-soluble protein abundance amounted to 1.04 ± 0.013 (concentration: 0.1mM) and 1.01 ± 0.019 (concentration: 0.5mM).

For the target “K7EJB9 and related entries (UniProt P27797)”, the NP40-soluble protein abundance reads like this: (concentration: 0.1mM) 0.975 ± 0.026; (concentration: 0.5mM) 0.994 ± 0.064.

As for AKAP8 (UniProt O43823), the NP40-soluble protein abundance reads like this: (concentration: 0.1mM) 0.989 ± 0.029; (concentration: 0.5mM) 1.01 ± 0.041.

Take SCD (UniProt O00767): the NP40-soluble protein abundance was 0.975 ± 0.08 (concentration: 0.1mM) and 0.978 ± 0.098 (concentration: 0.5mM).

With UniProt O00762 and related entries, the NP40-soluble protein abundance was found to be 1.02 ± 0.02 (concentration: 0.1mM) and 1.02 ± 0.029 (concentration: 0.5mM).

As for “M0QYM7 and related entries (UniProt P04350)”, the NP40-soluble protein abundance runs as follows: (concentration: 0.1mM) 1.01 ± 0.04; (concentration: 0.5mM) 1.02 ± 0.028.

As to SPTLC1 (UniProt O15269), the NP40-soluble protein abundance reads like this: (concentration: 0.1mM) 1 ± 0.029; (concentration: 0.5mM) 0.9813 ± 0.005.

As for UniProt O00628 and related entries, the NP40-soluble protein abundance was determined as 1.002 ± 0.01 (concentration: 0.1mM) and 1.01 ± 0.037 (concentration: 0.5mM).

With “K7EP59 and related entries (UniProt Q15831)”, the NP40-soluble protein abundance by setting is: (concentration: 0.1mM) 1.02 ± 0.032; (concentration: 0.5mM) 1.0283 ± 0.00083.

Take UniProt O43296: the NP40-soluble protein abundance is, setting by setting: (concentration: 0.1mM) 0.981 ± 0.032; (concentration: 0.5mM) 1.009 ± 0.0093.

As to YKT6 (UniProt O15498), the NP40-soluble protein abundance (concentration: 0.1mM) came to 0.972 ± 0.05 and the NP40-soluble protein abundance (concentration: 0.5mM) amounted to 1.01 ± 0.014.

In the case of “K7EQS2 and related entries (UniProt Q96C34)”, the NP40-soluble protein abundance by setting is: (concentration: 0.1mM) 0.991 ± 0.027; (concentration: 0.5mM) 0.989 ± 0.0098.

Consider HNRNPR (UniProt O43390), for which the NP40-soluble protein abundance is, setting by setting: (concentration: 0.1mM) 1.04 ± 0.068; (concentration: 0.5mM) 1.03 ± 0.094.

Consider UniProt O43251-6|O43251-8, for which the NP40-soluble protein abundance is 0.999 ± 0.0073 (concentration: 0.1mM) and 0.994 ± 0.034 (concentration: 0.5mM).

UniProt O43402 and related entries: the NP40-soluble protein abundance is, setting by setting: (concentration: 0.1mM) 1.01 ± 0.014; (concentration: 0.5mM) 0.981 ± 0.027.

Turning to STXBP3 (UniProt O00186), the NP40-soluble protein abundance (concentration: 0.1mM) amounted to 0.987 ± 0.038 and the NP40-soluble protein abundance (concentration: 0.5mM) came to 1.01 ± 0.04.

As to UniProt O43504, the NP40-soluble protein abundance was found to be 1.03 ± 0.028 (concentration: 0.1mM) and 1.07 ± 0.077 (concentration: 0.5mM).

Consider “M0R2B7 and related entries (UniProt P28340)”, for which the NP40-soluble protein abundance reads like this: (concentration: 0.1mM) 1.01 ± 0.034; (concentration: 0.5mM) 0.972 ± 0.068.

Consider UniProt O43164 and related entries, for which the NP40-soluble protein abundance was 1 ± 0.028 (concentration: 0.1mM) and 0.999 ± 0.024 (concentration: 0.5mM).

For NDUFA2 (UniProt O43678), the NP40-soluble protein abundance was 0.998 ± 0.056 (concentration: 0.1mM) and 0.993 ± 0.059 (concentration: 0.5mM).

As for “M0QXA7 and related entries (UniProt O95785)”, the NP40-soluble protein abundance reads like this: (concentration: 0.1mM) 0.999 ± 0.03; (concentration: 0.5mM) 1.03 ± 0.028.

Take “K7ELQ0 and related entries (UniProt Q9BYD3)”: the NP40-soluble protein abundance runs as follows: (concentration: 0.1mM) 0.997 ± 0.019; (concentration: 0.5mM) 1.02 ± 0.035.

In the case of “K7ENF0 and related entries (UniProt O43776)”, the NP40-soluble protein abundance (concentration: 0.1mM) is 0.981 ± 0.049 and the NP40-soluble protein abundance (concentration: 0.5mM) was 0.972 ± 0.037.

On to CLGN (UniProt O14967), for which the NP40-soluble protein abundance (concentration: 0.1mM) came out at 0.997 ± 0.039 and the NP40-soluble protein abundance (concentration: 0.5mM) is 1.02 ± 0.043.

Take UBE2L6 (UniProt O14933): the NP40-soluble protein abundance (concentration: 0.1mM) worked out at 0.992 ± 0.036 and the NP40-soluble protein abundance (concentration: 0.5mM) turned out to be 1.07 ± 0.048.

As for PFDN6 (UniProt O15212), the NP40-soluble protein abundance by setting is: (concentration: 0.1mM) 0.969 ± 0.04; (concentration: 0.5mM) 0.955 ± 0.035.

As for “K7EJH8 and related entries (UniProt O43707)”, the NP40-soluble protein abundance (concentration: 0.1mM) came to 0.9865 ± 0.0086 and the NP40-soluble protein abundance (concentration: 0.5mM) was found to be 1.04 ± 0.032.

Consider UniProt O00221 and related entries, for which the NP40-soluble protein abundance runs as follows: (concentration: 0.1mM) 1 ± 0.035; (concentration: 0.5mM) 1.01 ± 0.0032.

As for “K7ERT1 and related entries (UniProt O00273)”, the NP40-soluble protein abundance amounted to 1.01 ± 0.035 (concentration: 0.1mM) and 1 ± 0.022 (concentration: 0.5mM).

With KPNA4 (UniProt O00629), the NP40-soluble protein abundance reads like this: (concentration: 0.1mM) 1.04 ± 0.015; (concentration: 0.5mM) 1.05 ± 0.017.

For the target HTATSF1 (UniProt O43719), the NP40-soluble protein abundance (concentration: 0.1mM) came to 0.986 ± 0.046 and the NP40-soluble protein abundance (concentration: 0.5mM) was determined as 1.02 ± 0.056.

With UniProt O43683 and related entries, the NP40-soluble protein abundance was 0.9756 ± 0.0068 (concentration: 0.1mM) and 0.951 ± 0.02 (concentration: 0.5mM).

Take K7EKM7 (UniProt O75264): the NP40-soluble protein abundance is, setting by setting: (concentration: 0.1mM) 1.01 ± 0.018; (concentration: 0.5mM) 1.05 ± 0.031.

As to EEF2K (UniProt O00418), the NP40-soluble protein abundance is, setting by setting: (concentration: 0.1mM) 0.991 ± 0.032; (concentration: 0.5mM) 0.9763 ± 0.0054.

For the target RFXAP (UniProt O00287), the NP40-soluble protein abundance runs as follows: (concentration: 0.1mM) 0.988 ± 0.033; (concentration: 0.5mM) 1 ± 0.034.
